Source: PMC12326010, “Substrate accessibility regulation of human TopIIa decatenation by cohesin” (Nature Communications, 2025)
These are yes or no findings as the source states them, for the method shown. Some binding calls cover weakened binding; strength is not graded here. Tags and fused reporters may be left off the sequences shown.

Protein sequences, listed by entry. Tags and fused reporters are not part of them.
UniProt Q9UQE7: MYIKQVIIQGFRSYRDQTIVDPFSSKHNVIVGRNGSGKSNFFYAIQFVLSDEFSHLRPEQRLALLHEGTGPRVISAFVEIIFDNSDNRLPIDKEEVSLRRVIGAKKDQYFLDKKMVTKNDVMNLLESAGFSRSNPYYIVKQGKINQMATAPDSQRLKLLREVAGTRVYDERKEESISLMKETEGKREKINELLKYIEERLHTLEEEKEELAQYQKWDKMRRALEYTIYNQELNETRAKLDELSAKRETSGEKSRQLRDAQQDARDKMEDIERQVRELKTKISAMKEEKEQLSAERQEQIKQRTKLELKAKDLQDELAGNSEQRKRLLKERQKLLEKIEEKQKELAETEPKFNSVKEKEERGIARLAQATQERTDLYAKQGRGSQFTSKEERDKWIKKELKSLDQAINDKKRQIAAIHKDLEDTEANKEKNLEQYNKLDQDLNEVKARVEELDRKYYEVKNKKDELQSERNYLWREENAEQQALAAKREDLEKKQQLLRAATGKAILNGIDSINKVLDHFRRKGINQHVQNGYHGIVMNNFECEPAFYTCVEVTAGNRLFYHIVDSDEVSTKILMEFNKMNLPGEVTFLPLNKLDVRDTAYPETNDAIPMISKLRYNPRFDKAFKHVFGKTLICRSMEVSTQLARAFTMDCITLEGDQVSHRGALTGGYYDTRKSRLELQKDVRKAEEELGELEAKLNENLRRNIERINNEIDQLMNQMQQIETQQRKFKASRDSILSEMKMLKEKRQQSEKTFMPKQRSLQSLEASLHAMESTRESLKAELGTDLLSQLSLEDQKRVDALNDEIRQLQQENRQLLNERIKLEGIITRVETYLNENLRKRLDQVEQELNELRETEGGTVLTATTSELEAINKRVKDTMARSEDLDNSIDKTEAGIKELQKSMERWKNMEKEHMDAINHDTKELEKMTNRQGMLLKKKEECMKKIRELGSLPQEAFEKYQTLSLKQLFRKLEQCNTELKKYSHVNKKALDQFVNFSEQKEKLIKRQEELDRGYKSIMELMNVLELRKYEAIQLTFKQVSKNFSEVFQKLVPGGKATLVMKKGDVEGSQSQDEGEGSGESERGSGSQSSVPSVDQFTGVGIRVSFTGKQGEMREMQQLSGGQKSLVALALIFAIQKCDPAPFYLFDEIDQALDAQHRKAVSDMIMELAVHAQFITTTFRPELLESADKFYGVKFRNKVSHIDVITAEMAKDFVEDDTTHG

Target: T1, Human cohesin subunit STAG1 with C-terminal 3C-ybbr-tev-strepII tag (human) (UniProt Q8WVM7)
T1 sequence: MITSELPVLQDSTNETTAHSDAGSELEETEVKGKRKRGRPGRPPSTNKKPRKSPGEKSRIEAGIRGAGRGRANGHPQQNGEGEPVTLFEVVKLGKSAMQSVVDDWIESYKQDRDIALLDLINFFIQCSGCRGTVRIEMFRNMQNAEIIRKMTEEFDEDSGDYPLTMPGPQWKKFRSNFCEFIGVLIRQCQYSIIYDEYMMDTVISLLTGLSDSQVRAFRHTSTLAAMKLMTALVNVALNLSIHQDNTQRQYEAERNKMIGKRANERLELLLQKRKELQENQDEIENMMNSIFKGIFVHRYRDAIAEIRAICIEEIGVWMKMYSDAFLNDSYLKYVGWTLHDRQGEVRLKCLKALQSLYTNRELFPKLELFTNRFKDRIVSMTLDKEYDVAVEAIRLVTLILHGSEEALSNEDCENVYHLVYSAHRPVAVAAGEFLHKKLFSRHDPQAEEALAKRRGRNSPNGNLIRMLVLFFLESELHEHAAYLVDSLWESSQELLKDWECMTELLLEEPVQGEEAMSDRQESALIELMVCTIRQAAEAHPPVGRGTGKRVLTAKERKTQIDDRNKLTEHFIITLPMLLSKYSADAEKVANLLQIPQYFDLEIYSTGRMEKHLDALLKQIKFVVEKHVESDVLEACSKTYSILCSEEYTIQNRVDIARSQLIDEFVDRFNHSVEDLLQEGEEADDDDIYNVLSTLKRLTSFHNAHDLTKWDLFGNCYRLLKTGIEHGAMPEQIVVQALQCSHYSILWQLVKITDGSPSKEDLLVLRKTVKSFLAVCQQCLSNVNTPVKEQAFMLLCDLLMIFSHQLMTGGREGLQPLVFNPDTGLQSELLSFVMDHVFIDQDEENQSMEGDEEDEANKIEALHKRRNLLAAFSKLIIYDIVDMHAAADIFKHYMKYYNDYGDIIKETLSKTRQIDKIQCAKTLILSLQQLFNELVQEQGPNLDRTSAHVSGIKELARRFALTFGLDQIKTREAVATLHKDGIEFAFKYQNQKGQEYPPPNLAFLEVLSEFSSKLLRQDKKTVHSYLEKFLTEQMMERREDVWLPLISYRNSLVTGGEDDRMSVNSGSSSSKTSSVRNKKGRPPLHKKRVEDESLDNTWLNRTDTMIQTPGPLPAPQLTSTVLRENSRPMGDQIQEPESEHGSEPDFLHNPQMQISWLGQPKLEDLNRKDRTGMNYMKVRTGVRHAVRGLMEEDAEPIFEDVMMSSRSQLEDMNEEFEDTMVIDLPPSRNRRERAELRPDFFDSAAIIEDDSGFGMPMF
Test: co-purification (Strep affinity, heparin, size exclusion); cohesin STAG1 tetramer co-expressed in insect cells; lysate loaded on StrepTrap HP (StrepII on STAG1), eluted with desthiobiotin, HiTrap Heparin, Superose 6; 20 mM HEPES pH 8, 300 mM KCl, 5 mM MgCl2, 1 mM DTT, 10% glycerol

Human cohesin subunit SMC3 with C-terminal 3C-His10 tag (from UniProt Q9UQE7 1-1217)
binding: binds
